In PubChem BioAssay AID1259415 (National Center for Advancing Translational Sciences (NCATS), 2018):
In all, about 410,000 compounds went through this assay and about 18,000 (4.4%) were called active. Inconclusive means that the source gave no clear call. Such entries were picked first, then a sample of the others. Cut-off read from the data, not from the text of the source: active = activity change below about -60%; inconclusive = no clear call, values can overlap the other calls; inactive = above about -39%.

Assay: qHTS Assay for inhibitors of the human cytomegalovirus (HCMV)
Settings: HFF cells, HCMV-luciferase reporter, 72 h; at 57.5 µM; hits give low values
Procedure, shortened: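 After 16 h attachment at 37C, HFF cells received test compound and HCMV-luciferase (1 PFU/cell); reporter luminescence read 72 h later, data normalized against buffer-only and known inhibitor Salinomycin.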
% is set by controls: 0 for no effect and ±100 for the full control effect.

For `COc1ccc(NC(=S)Nc2ccccc2)cc1`, which activity change, negative = inhibition is on record?
The activity change, negative = inhibition was inconclusive: -46.1%.

Which activity change, negative = inhibition does the source give for `Cc1c2cnn(CC(=O)NCCCN3CC(C)CC(C)C3)c(=O)c2c(C)n1Cc1ccc(Cl)cc1` (stereo not given) here?
The activity change, negative = inhibition was inconclusive: -53%.

With `COc1cc(N=Nc2c(C)n(C)n(-c3ccccc3)c2=O)ccc1N` as the molecule, how does the activity change, negative = inhibition read?
The activity change, negative = inhibition was inconclusive: -40.1%.

For `Cc1nc(C)c(C(=O)NNC(=O)Nc2ccc(Cl)cc2)s1`, which activity change, negative = inhibition is on record?
Its activity change, negative = inhibition is inactive: 9.15%.

For `Cc1ccccc1OCCNC(=O)/C=C/c1ccccc1`, which activity change, negative = inhibition is on record?
The activity change, negative = inhibition was inconclusive: -41.4%.

For `CCCCNc1c(-c2ccc(-c3ccc(C(C)=O)cc3)c(OC)c2)nc2cc(C)ccn12`, which activity change, negative = inhibition is on record?
Its activity change, negative = inhibition is active: -92.9%.

With `COc1ccc(N(CC(=O)Nc2c(C)n(C)n(-c3ccccc3)c2=O)S(=O)(=O)c2ccc(C)cc2)cc1` as the molecule, how does the activity change, negative = inhibition read?
Its activity change, negative = inhibition is inconclusive: -41.8%.

With `Cc1ccc(Nc2cc(C)nc3nncn23)c(C)c1` as the molecule, how does the activity change, negative = inhibition read?
The activity change, negative = inhibition was inactive: 1.91%.

For `COc1ccccc1C(=O)Nc1nc(-c2ccc3c(c2)OCCO3)cs1`, which activity change, negative = inhibition is on record?
The activity change, negative = inhibition was active: -63.4%.

With `CCOC(=O)c1sc(NC(=O)CNCc2cccnc2)c(C(=O)OCC)c1C` as the molecule, how does the activity change, negative = inhibition read?
The activity change, negative = inhibition was active: -62%.

With `C=C(C)CC(NCCc1ccccc1)c1ccco1` (stereo not given) as the molecule, how does the activity change, negative = inhibition read?
The activity change, negative = inhibition was inconclusive: -42.7%.

With `Cc1ccccc1CC1(CO)CCCN(C(=O)c2ccccc2Cl)C1` (stereo not given) as the molecule, how does the activity change, negative = inhibition read?
The activity change, negative = inhibition was inconclusive: -57.2%.

For `Oc1ccc(Br)cc1/C=N/n1c(C2CCCCC2)n[nH]c1=S`, which activity change, negative = inhibition is on record?
Its activity change, negative = inhibition is inconclusive: -41.7%.

Which activity change, negative = inhibition does the source give for `Cc1cc(C)cc(C(=O)n2nc(C)c(S(=O)(=O)N3CCOCC3)c2C)c1` here?
The activity change, negative = inhibition was inactive: 8.51%.

With `Cc1ccc(-c2nn(-c3ccccc3)cc2CN(Cc2ccccc2)C(=O)c2ccco2)o1` as the molecule, how does the activity change, negative = inhibition read?
The activity change, negative = inhibition was active: -75.6%.

Which activity change, negative = inhibition does the source give for `CN(CC(=O)Nc1ccc(N2CCOCC2)cc1)CC(=O)Nc1ccc([N+](=O)[O-])cc1Br` here?
Its activity change, negative = inhibition is inconclusive: -48.1%.

With `COc1ccccc1CC(=O)Nc1ccc(-c2noc(COc3ccc(Cl)c(C)c3)n2)cc1` as the molecule, how does the activity change, negative = inhibition read?
The activity change, negative = inhibition was active: -67%.

For `O=C(NCC(c1ccco1)N1CCc2ccccc21)C(=O)Nc1ccccc1` (stereo not given), which activity change, negative = inhibition is on record?
The activity change, negative = inhibition was inactive: -4.06%.

For `OC[C@@H]1CCCN1Cc1nc(-c2cccs2)no1`, which activity change, negative = inhibition is on record?
The activity change, negative = inhibition was inactive: 40.3%.

Which activity change, negative = inhibition does the source give for `O=C(Nc1ccc(F)cc1)N(Cc1ccco1)Cc1cc2cc3c(cc2[nH]c1=O)OCO3` here?
Its activity change, negative = inhibition is inconclusive: -45.2%.

With `CC1=C(C(=O)N(C(C)C)C(C)C)CC(CC(=O)NCCCN(C)C)C(=O)N1Cc1ccc(C(C)(C)C)cc1` (stereo not given) as the molecule, how does the activity change, negative = inhibition read?
The activity change, negative = inhibition was inconclusive: -41.8%.

With `Cc1c(Cl)cccc1NC(=O)C(C)n1c(=O)cc(C)c2c(C)nn(-c3ccccc3)c21` (stereo not given) as the molecule, how does the activity change, negative = inhibition read?
Its activity change, negative = inhibition is inactive: -1.78%.

With `CCOc1ccccc1OCCCC(=O)Nc1ccc(Cl)c(S(=O)(=O)N2CCOCC2)c1` as the molecule, how does the activity change, negative = inhibition read?
The activity change, negative = inhibition was inconclusive: -40.9%.

Which activity change, negative = inhibition does the source give for `O=C(Nc1ccc(N2CCOCC2)cc1)c1ccc2nc(-c3ccco3)c(-c3ccco3)nc2c1` here?
The activity change, negative = inhibition was inactive: 8.44%.

For `COc1ccc(-c2cc3nc(NCc4ccc(N(C)C)cc4)n(C)c(=O)c3s2)cc1OC`, which activity change, negative = inhibition is on record?
The activity change, negative = inhibition was inconclusive: -42.8%.

For `Cc1ccccc1NC(=O)c1ccc(Nc2c([N+](=O)[O-])cc([N+](=O)[O-])c3ccccc23)cc1`, which activity change, negative = inhibition is on record?
The activity change, negative = inhibition was active: -91.7%.

With `Cc1ccnc(NC(=O)CCC(=O)N(Cc2ccco2)C(C(=O)NC(C)C)c2ccc(F)cc2)c1` (stereo not given) as the molecule, how does the activity change, negative = inhibition read?
The activity change, negative = inhibition was inconclusive: -59.3%.

With `NS(=O)(=O)c1cccc(NC(=O)CSc2ncnc3ccccc23)c1` as the molecule, how does the activity change, negative = inhibition read?
Its activity change, negative = inhibition is inconclusive: -53.4%.

With `CC1(C)CC(N2CCCCC2)=CC(=[N+]2CCCCC2)C1` as the molecule, how does the activity change, negative = inhibition read?
Its activity change, negative = inhibition is active: -94.8%.

For `Cc1cccc(C)c1NC(=O)C(c1ccc([N+](=O)[O-])cc1)N(C)C(=O)c1ccccn1` (stereo not given), which activity change, negative = inhibition is on record?
Its activity change, negative = inhibition is inconclusive: -41.6%.

With `CCc1ccc2nc(Nc3nc(COC)cc(=O)[nH]3)nc(C)c2c1` as the molecule, how does the activity change, negative = inhibition read?
The activity change, negative = inhibition was inactive: -27.1%.

With `CCN(Cc1ccccc1)C(=O)CN1C(=O)NC2(CC(C)CC(C)(C)C2)C1=O` (stereo not given) as the molecule, how does the activity change, negative = inhibition read?
Its activity change, negative = inhibition is inconclusive: -49.1%.

With `O=C(COc1ccccc1)Nc1ccccc1Oc1ccccc1` as the molecule, how does the activity change, negative = inhibition read?
The activity change, negative = inhibition was inconclusive: -45.1%.

Which activity change, negative = inhibition does the source give for `Cc1ccnc(NC(=O)c2ccc(NC(=O)c3ccco3)cc2)c1` here?
Its activity change, negative = inhibition is active: -84.7%.

With `O=C(O)c1nn2cc(CCO)cnc2c1Cl` as the molecule, how does the activity change, negative = inhibition read?
The activity change, negative = inhibition was inconclusive: -43.8%.

Which activity change, negative = inhibition does the source give for `COCCC(C(=O)Oc1c(C(C)(C)C)cc(C)cc1C(C)(C)C)c1ccccc1` (stereo not given) here?
Its activity change, negative = inhibition is inactive: -1.27%.

With `COCCNc1nc(NCC2CCCCC2)c2sc(-c3ccccc3)cc2n1` as the molecule, how does the activity change, negative = inhibition read?
The activity change, negative = inhibition was inconclusive: -41.9%.

With `CC(=O)N(C)c1ccc(NS(=O)(=O)Cc2ccccc2)cc1` as the molecule, how does the activity change, negative = inhibition read?
The activity change, negative = inhibition was inactive: 8.62%.

With `CCOC(=O)C1=CC[C@H]2c3c(c4ccccc4n3C)C(=O)C1N2Cc1ccccc1` as the molecule, how does the activity change, negative = inhibition read?
The activity change, negative = inhibition was inactive: 1.52%.

Which activity change, negative = inhibition does the source give for `Cc1ccc(OCCCC(=O)Nc2cc(Cl)ccc2-n2cncn2)cc1` here?
Its activity change, negative = inhibition is inactive: 8.84%.

With `Cc1ccc(-n2ncc(C(=O)NCCCN3CCc4ccccc4C3)c2C2CCN(C(=O)OC(C)(C)C)CC2)c(C)c1` as the molecule, how does the activity change, negative = inhibition read?
Its activity change, negative = inhibition is inconclusive: -46.8%.

Which activity change, negative = inhibition does the source give for `COc1ccc(F)cc1C(=O)C1CCCN(Cc2c[nH]c3ccccc23)C1` (stereo not given) here?
The activity change, negative = inhibition was inconclusive: -40.7%.

For `CCCCN1CCNC1=S`, which activity change, negative = inhibition is on record?
The activity change, negative = inhibition was inactive: 47%.

For `O=C(CC(Nc1ccc(F)cc1)c1ccccc1)c1ccccc1` (stereo not given), which activity change, negative = inhibition is on record?
Its activity change, negative = inhibition is inconclusive: -49.1%.

With `CCC(C)NS(=O)(=O)c1ccc(NC(=O)Cc2ccc(OC)cc2)cc1` (stereo not given) as the molecule, how does the activity change, negative = inhibition read?
The activity change, negative = inhibition was inconclusive: -43%.

Which activity change, negative = inhibition does the source give for `CCCc1[nH]nc2c1C(C1CC=CCC1)C(C#N)=C(N)O2` (stereo not given) here?
The activity change, negative = inhibition was inconclusive: -45.7%.

With `O=c1ccnc(Nc2ccc3c(c2)OCCO3)[nH]1` as the molecule, how does the activity change, negative = inhibition read?
The activity change, negative = inhibition was inconclusive: -48.7%.

Which activity change, negative = inhibition does the source give for `COc1ccccc1NC(=S)N1CCCC1` here?
Its activity change, negative = inhibition is inconclusive: -40.9%.

For `Clc1ccc(/C=N/N2CCN(Cc3ccccc3Cl)CC2)cc1`, which activity change, negative = inhibition is on record?
Its activity change, negative = inhibition is inconclusive: -57.6%.

With `Cc1ccc(C(C(=O)NCC2CCCO2)N(C(=O)c2snc(C(N)=O)c2N)c2ccccc2F)o1` (stereo not given) as the molecule, how does the activity change, negative = inhibition read?
Its activity change, negative = inhibition is inconclusive: -40.8%.

Which activity change, negative = inhibition does the source give for `O=C1CSC(c2cccc(O)c2)N1Cc1ccccc1` (stereo not given) here?
Its activity change, negative = inhibition is inconclusive: -48.1%.

For `CCOc1ccc(CN2CCc3nc(N4CCN(c5ccccn5)CC4)ncc3C2)cc1OC`, which activity change, negative = inhibition is on record?
Its activity change, negative = inhibition is inconclusive: -49.6%.

Which activity change, negative = inhibition does the source give for `O=C(O)c1cccc(CSc2nnc(-c3ccc(Cl)cc3)o2)c1` here?
The activity change, negative = inhibition was inconclusive: -41%.

Which activity change, negative = inhibition does the source give for `COc1ccccc1NC(=O)Cn1c(=O)n(-c2cccc(C)c2)c(=O)c2c1c1cc(C)ccc1n2C` here?
Its activity change, negative = inhibition is inactive: 116%.

For `COC(=O)c1cc(Nc2cc(C)c3ccc(O)cc3n2)cc(C(=O)OC)c1`, which activity change, negative = inhibition is on record?
Its activity change, negative = inhibition is inconclusive: -43.9%.
